These are yes or no findings as the source states them, for the method shown. A result given as binding can be weak or reduced; the word gives no strength.
Molecular target: Cynomolgus B7H3 (plate-coated protein, ELISA) (cynomolgus monkey)
Experiment: ELISA, antigen coated on plate

Row | Binder | binding
1 | #27-21 (VH2-2-VL2-1) (antibody, V domains shown) VH: QVQLVQSGAEVVKPGASVKVSCKASGYTFTNYWMHWVKQAPGQGLEWIGMIHPNSGAFNYNERFKTRVTITVDKSTSTAYMELSSLRSEDTAVYYCARSTALATGYWGQGTLLTVSS VL: DIQLTQSPSFLSASVGDRVTITCSASSSVSYMYWYQQKPGKSPKLLIYDTSNLASGVPSRFSGSGSGTEYTLTISSLQPEDFATYYCQQWSSYPLTFGQGTKLEIK | binds
2 | #23-5424 (VH5-4-VL2-4) (antibody, IgG1, V domains shown) VH: QVQLVQSGAEVKKPGESLKISCKASGYNFNNYWMHWVRQRPGKGLEWIGMIHPNSGTFNYNERFKRKATLTVDKSISTAYLQWSSLKAEDTAMYYCAKSTALATDYWGQGTLVTVSS VL: QIVLTQSPSTLSASVGDRVTMTCSASSSVSYMYWYQQKPGKAPKLLIYDTSNLASGVPIRFSGSGSGTSYTLTISSMQPDDFVTYYCQQWSSYPLTFGQGTKLEIK | binds
3 | #23-5423 (VH5-4-VL2-3) (antibody, IgG1, V domains shown) VH: QVQLVQSGAEVKKPGESLKISCKASGYNFNNYWMHWVRQRPGKGLEWIGMIHPNSGTFNYNERFKRKATLTVDKSISTAYLQWSSLKAEDTAMYYCAKSTALATDYWGQGTLVTVSS VL: QIVLTQSPSTLSASVGDRVTITCSASSSVSYMYWYQQKPGKAPKLLIYDTSNLASGVPIRFSGSGSGTSYTLTISSLQPDDFATYYCQQWSSYPLTFGQGTKLEIK | binds

Results, then the binder that gave them:

Row | binding | Binder
4 | binds | #27-2121 (VH2-1-VL2-1) (antibody, IgG1, V domains shown) VH: QVQLVQSGAEVVKPGASVKVSCKASGYTFTNYWMHWVRQAPGQGLEWMGMIHPNSGAFNYNERFKTRVTITVDKSTSTAYMELSSLRSEDTAVYYCARSTALATGYWGQGTLVTVSS VL: DIQLTQSPSFLSASVGDRVTITCSASSSVSYMYWYQQKPGKSPKLLIYDTSNLASGVPSRFSGSGSGTEYTLTISSLQPEDFATYYCQQWSSYPLTFGQGTKLEIK
5 | binds | #27-22 (VH2-2-VL2-2) (antibody, IgG1, V domains shown) VH: QVQLVQSGAEVVKPGASVKVSCKASGYTFTNYWMHWVKQAPGQGLEWIGMIHPNSGAFNYNERFKTRVTITVDKSTSTAYMELSSLRSEDTAVYYCARSTALATGYWGQGTLLTVSS VL: DIQLTQSPSFLSASVGDRVTMTCSASSSVSYMYWYQQKPGKSPKLLIYDTSNLASGVPSRFSGSGSGTEYTLTISSLQPEDFVTYYCQQWSSYPLTFGQGTKLEIK

Reference: patent publication US20220119529A1
